What all share (experiment): enzyme reaction in vitro
In one series the test system is SacII. Conditions: 5'-amine and 3'-amine, purified recombinant protein, protein details: New England Biolabs, folded or branched DNA.
The test system of another series is XhoI. Conditions: 5'-amine and 3'-amine, purified recombinant protein, protein details: New England Biolabs, folded or branched DNA.
For a further series, the system named is MboI. Conditions: 5'-amine and 3'-amine, 2 units, RCA readout, purified recombinant protein, protein details: New England Biolabs, folded or branched DNA.
Series [1] relates to XhoI activity (M. smegmatis extract) (Mycobacterium smegmatis). Conditions: 5'-amine and 3'-amine, protein in an extract, folded or branched DNA.
In the next series the test system is BciVI. Conditions: 5'-amine and 3'-amine, 2 units, RCA readout, purified recombinant protein, protein details: New England Biolabs, folded or branched DNA.
The mark [2] stands for this setting: off-target enzyme, 2 units, pair SEQ 7+8.
Where [3] appears, read: off-target enzyme, 2 units, pair SEQ 5+6.
The mark [4] stands for this setting: off-target enzyme, 2 units, pair SEQ 1+2.
Setting [5] is: off-target enzyme, 2 units, pair SEQ 3+4.

Construct, isoform or probe ends are uncertain for at least one entry. For part of these data: No signal at the amounts used counts as a negative.

Regarding “ATTTGACCTGCAGGTCGTATAGGAACTTCGAACGACTCGCCTCAATGCACATGTTTGGCTCCCGAGTCGTTCGAAGTTCCTATACGACCTGCAGGTCAAAT [REN2-ID33-PstI]”, the “activity on this sequence” value in the series with SacII (setting [2]) and in the series with XhoI (setting [2]) was “not active” throughout. “ATTTGACGATCGTCGTATAGGAACTTCGAACGACTCGCCTCAATGCACATGTTTGGCTCCCGAGTCGTTCGAAGTTCCTATACGACGATCGTCAAAT [REN2-ID33-MboI]”: the “activity on this sequence” value in the series with MboI (pair with SEQ 16) is “active”.

For the sequence “ATTTCCACCGCGGTGGGTATAGGAACTTCGAACGACTCGACTGTGAAGATCGCTTATCGAGTCGTTCGAAGTTCCTATACCCACCGCGGTGGAAAT [REN2-PB-SacII]”, the “activity on this sequence” value in the series with SacII (pair with SEQ 5, RCA readout) is recorded as “active”; in the series on XhoI (setting [3]) it was “not active”. Take “ATTTGACGAATTCGTCGTATAGGAACTTCGAACGACTCGCCTCAATGCACATGTTTGGCTCCCGAGTCGTTCGAAGTTCCTATACGACGAATTCGTCAAAT [REN2-ID33-EcoRI]”: the “activity on this sequence” value in the series on SacII (setting [4]) and with XhoI (setting [4]) was “not active” throughout. Turning to “ATTTCCACTCGAGTGGGTATAGGAACTTCGAACGACTCGACTGTGAAGATCGCTTATCGAGTCGTTCGAAGTTCCTATACCCACTCGAGTGGAAAT [REN2-PB-XhoI]”, the “activity on this sequence” value in the series with SacII (setting [5]) was “not active”; in series [1] (pair with SEQ 3, identical stems, off-target signal with RY13 extract), “active”; with XhoI (pair with SEQ 3, RCA readout) it was “active”.

“ATTTGACCTCGAGGTCGTATAGGAACTTCGAACGACTCGCCTCAATGCACATGTTTGGCTCCCGAGTCGTTCGAAGTTCCTATACGACCTCGAGGTCAAAT [REN2-ID33-XhoI]”: the “activity on this sequence” value is “not active” in the series on SacII (setting [5]); “active” in series [1] (pair with SEQ 18 or SEQ 4, extract); “active” in the series on XhoI (pair with SEQ 4, RCA readout). On to “ATTTCCACTGCAGTGGGTATAGGAACTTCGAACGACTCGACTGTGAAGATCGCTTATCGAGTCGTTCGAAGTTCCTATACCCACTGCAGTGGAAAT [REN2-PB-PstI]”, for which the “activity on this sequence” value with SacII (setting [2]) and in the series with XhoI (setting [2]) was “not active” in each case. For “ATTTGACGTATCCAAATTTGTCGACTTCGAACGACTCGCCTCAATGCACATGTTTGGCTCCCGAGTCGTTCGAAGTCGACAAATTTGGATACGTCAAAT [REN2-ID33-BciVI]”, the “activity on this sequence” value with BciVI (pair with SEQ 14) is “active”. As for “ATTCACTCTCGAGAGCGCTTAGGAGTGCATATACGATGCACTGTGAAGATCGCTTATGCATCGTATATGCACTCCTAAGCGCTCTCGAGAGTGAAT [REN2B-PB-XhoI]”, the “activity on this sequence” value was “active” in series [1] (pair with SEQ 3, extract, RY13 extract gives no signal) and “active” with XhoI (pair with SEQ 3, LNA primer RCA readout).

Turning to “ATTTGACCCGCGGGTCGTATAGGAACTTCGAACGACTCGCCTCAATGCACATGTTTGGCTCCCGAGTCGTTCGAAGTTCCTATACGACCCGCGGGTCAAAT [REN2-ID33-SacII]”, the “activity on this sequence” value is recorded as “active” in the series on SacII (pair with SEQ 6, RCA readout) and “not active” in the series with XhoI (setting [3]). With “ATTTCCAGTATCCTTTAAATGGGACTTCGAACGACTCGACTGTGAAGATCGCTTATCGAGTCGTTCGAAGTCCCATTTAAAGGATACTGGAAAT [REN2-PB-BciVI]”, the “activity on this sequence” value with BciVI (pair with SEQ 13) is “active”. Turning to “ATTTCCAGAATTCTGGGTATAGGAACTTCGAACGACTCGACTGTGAAGATCGCTTATCGAGTCGTTCGAAGTTCCTATACCCAGAATTCTGGAAAT [REN2-PB-EcoRI]”, the “activity on this sequence” value in the series with SacII (setting [4]) and with XhoI (setting [4]) was “not active” in each case. For “ATTTCCAGATCTGGGTATAGGAACTTCGAACGACTCGACTGTGAAGATCGCTTATCGAGTCGTTCGAAGTTCCTATACCCAGATCTGGAAAT [REN2-PB-MboI]”, the “activity on this sequence” value with MboI (pair with SEQ 15) was “active”.
